Results are given in words; binding and its absence hold for the method and conditions named. In cells and extracts the contact can be indirect. Some binding calls cover weakened binding; strength is not graded here.

By UniProt entry, the sequences of proteins in these tests, tags left out. Where a name states a change or a piece, a line headed by the entry shows the natural chain unless it says otherwise.
UniProt P27986: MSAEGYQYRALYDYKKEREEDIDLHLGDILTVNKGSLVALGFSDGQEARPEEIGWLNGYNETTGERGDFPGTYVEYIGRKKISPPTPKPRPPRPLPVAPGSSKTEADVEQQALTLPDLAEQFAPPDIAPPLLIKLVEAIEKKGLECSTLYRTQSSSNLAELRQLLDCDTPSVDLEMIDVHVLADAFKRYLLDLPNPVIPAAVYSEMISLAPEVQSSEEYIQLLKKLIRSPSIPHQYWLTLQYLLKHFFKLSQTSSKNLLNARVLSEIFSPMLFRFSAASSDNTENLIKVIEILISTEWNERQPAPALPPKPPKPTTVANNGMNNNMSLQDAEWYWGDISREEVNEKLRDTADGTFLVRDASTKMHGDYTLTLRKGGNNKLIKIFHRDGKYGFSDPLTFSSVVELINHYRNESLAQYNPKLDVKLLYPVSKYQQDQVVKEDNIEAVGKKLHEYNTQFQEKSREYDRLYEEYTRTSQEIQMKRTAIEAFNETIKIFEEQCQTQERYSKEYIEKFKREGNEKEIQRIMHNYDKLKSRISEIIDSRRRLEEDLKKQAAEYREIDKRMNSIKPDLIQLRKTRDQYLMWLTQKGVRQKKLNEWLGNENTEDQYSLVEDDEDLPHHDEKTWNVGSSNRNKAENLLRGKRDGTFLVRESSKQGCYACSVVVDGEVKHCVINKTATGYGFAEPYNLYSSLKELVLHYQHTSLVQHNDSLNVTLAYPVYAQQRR
UniProt P26450: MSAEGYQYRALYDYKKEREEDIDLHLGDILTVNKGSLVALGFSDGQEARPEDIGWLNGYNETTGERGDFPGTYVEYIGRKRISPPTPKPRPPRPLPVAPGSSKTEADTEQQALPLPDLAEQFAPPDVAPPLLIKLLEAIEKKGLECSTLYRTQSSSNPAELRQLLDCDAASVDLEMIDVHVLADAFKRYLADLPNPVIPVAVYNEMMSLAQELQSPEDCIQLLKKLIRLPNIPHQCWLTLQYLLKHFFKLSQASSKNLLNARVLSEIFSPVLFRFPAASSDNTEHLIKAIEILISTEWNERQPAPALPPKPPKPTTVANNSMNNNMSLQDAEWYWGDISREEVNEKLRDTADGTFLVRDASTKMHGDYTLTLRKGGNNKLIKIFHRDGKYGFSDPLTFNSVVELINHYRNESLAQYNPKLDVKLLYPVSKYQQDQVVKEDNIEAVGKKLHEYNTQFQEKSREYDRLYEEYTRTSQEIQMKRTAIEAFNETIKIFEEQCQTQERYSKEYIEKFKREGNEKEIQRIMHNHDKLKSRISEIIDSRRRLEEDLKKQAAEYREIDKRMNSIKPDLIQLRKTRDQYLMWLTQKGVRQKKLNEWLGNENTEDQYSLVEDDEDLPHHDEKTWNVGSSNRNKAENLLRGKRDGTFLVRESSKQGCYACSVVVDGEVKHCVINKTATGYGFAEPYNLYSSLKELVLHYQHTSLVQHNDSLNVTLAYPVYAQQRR
UniProt Q15286: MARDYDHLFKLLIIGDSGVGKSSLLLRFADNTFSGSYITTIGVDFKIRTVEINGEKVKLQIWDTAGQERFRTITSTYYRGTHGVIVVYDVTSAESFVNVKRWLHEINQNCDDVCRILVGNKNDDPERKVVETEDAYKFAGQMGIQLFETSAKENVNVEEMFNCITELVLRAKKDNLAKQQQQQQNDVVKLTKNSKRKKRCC
UniProt Q6PHN9: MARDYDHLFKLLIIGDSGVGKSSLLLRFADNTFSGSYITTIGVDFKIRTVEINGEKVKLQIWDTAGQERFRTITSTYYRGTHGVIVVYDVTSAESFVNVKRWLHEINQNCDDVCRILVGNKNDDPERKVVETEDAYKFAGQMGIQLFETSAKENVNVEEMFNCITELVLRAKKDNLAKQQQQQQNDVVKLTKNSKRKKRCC

For experiment [1], the target named is p85α (endogenous, HeLa) (human (endogenous in HeLa)) (UniProt P27986). Kind of experiment: co-IP; serum-starved HeLa cells transfected with EGFP-fused RAB35 WT, S22N or Q67L, mock treated or stimulated with HGF for 10 min; 1 mg lysate immunoprecipitated with anti-p85α antibody or irrelevant IgG; immunoblot. For orientation: A western blot detects proteins with antibodies after separation by electrophoresis.

In experiment [2] the target is p85α, the regulatory subunit of PI3K (mouse (endogenous in MEFs)) (UniProt P26450). The experiment is described as follows: co-IP; serum-starved control MEFs (and p85α−/− p85β−/− double KO MEFs as control), stimulated or not for 10 min with PDGF; 1 mg lysate immunoprecipitated with anti-p85α monoclonal antibody or irrelevant IgG; immunoblot.

Consider “RAB35 S22N fused to EGFP (from UniProt Q15286 1-201)”, for which the binding entry in experiment [1] was “no binding”.

On to RAB35 (from UniProt Q6PHN9 1-201), for which the binding entry in experiment [2] is listed as “binds”.

In the case of “RAB35Q67L fused to EGFP (from UniProt Q15286 1-201)”, the binding entry in experiment [1] is reported as “binds”. On the same count and under the same terms, then “RAB35 WT fused to EGFP (from UniProt Q15286 1-201)”, with “binds”.

For the origin of these results see publication PMC5902610.
